# Measured values reported in PubChem BioAssay (EPA / NIEHS).
# Inconclusive means that the source gave no clear call. Such entries were picked first, then a sample of the others. Potencies of inconclusive entries are doubtful fits and often do not repeat. The source holds several records for some structures; these can differ, active in one and inactive in another. Calls of active or inactive are those of the source. How the source made its calls: active means hit-call score of the fitted dose curve at least 0.9, where 1 is the maximum; inconclusive means response in the unintended direction; inactive means score below 0.9.
# System: Sodium/Iodide Symporter (NIS), SLC5A5 (gene 6528)
# Assay: CPHEA_Stoker_NIS_Inhibition_RAIU: CPHEA's Radioactive Iodide Uptake (RAIU) Assay for Sodium/Iodide Symporter (NIS) Inhibition, Stoker and Laws Labs (AID 2283841)
# Method in brief: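 Test chemicals, six concentrations from 0.001 to 100uM in 0.5% DMSO, were co-incubated with carrier-free 125I (final 329pM) on hNIS-HEK293T-EPA monolayers in pH 7.4 HEPES-buffered HBSS. Plates stood 2 hours at room temperature, then were washed cold and counted.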
SMILES,outcome,AC50
CCC(C)(C)c1ccc(O)c(C(C)(C)CC)c1,inactive,
CCC[CH2][Sn]([Cl])([Cl])[CH2]CCC,,active: 3240 nM
COc1ccc(O)c(C(C)(C)C)c1,,inconclusive: 0.0942 nM
O=S(=O)(O)C(F)(F)C(F)(F)C(F)(F)C(F)(F)F,,inconclusive: 0.64 nM
CCOP(=S)(OCC)SCSC(C)(C)C,,inconclusive: 0.94 nM
OCC(F)(F)OC(F)(F)C(F)(F)OC(F)(F)CO,,inconclusive: 10.3 nM
O=C(O)C(F)(F)C(F)(F)C(F)(F)C(F)(F)C(F)(F)C(F)(F)C(F)(F)C(F)(F)C(F)(F)F,,active: 12800 nM
COc1ccc(-c2ccccc2)cc1NNC(=O)OC(C)C,,active: 50000 nM
COP(=O)(OC)OC(Br)C(Cl)(Cl)Br (configuration not stated),inactive,
O=[N+]([O-])c1ccc(Cl)c(Cl)c1,,inconclusive: 0.433 nM
N#CCCC(Br)(C#N)CBr (configuration not stated),inactive,

# System: not listed separately
# Assay: CPHEA_Stoker_NIS_Cytotoxicity: Cytotoxicity Assessment for CPHEA's Radioactive Iodide Uptake (RAIU) Assay for Sodium/Iodide Symporter (NIS) Inhibition, Stoker and Laws Labs (AID 2283897);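 on AC50: active means loss of ATP signal versus DMSO meaning cytotoxicity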
# Method in brief: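 Viability in hNIS-HEK293T-EPA cells is scored as a drop in luciferase-detected ATP following 2-hour room-temperature exposure (0.001–100uM; triplicate wells, three cell passages), with DMSO as negative control.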
SMILES,outcome,AC50
CCNP(=S)(OC)O/C(C)=C/C(=O)OC(C)C (configuration not stated),inactive,
CCOP(=S)(OCC)SCSCC,inactive,
CC1(C)Cc2cccc(O)c2O1,,inconclusive: 50 µM
CCOP(=S)(OCC)SCSC(C)(C)C,inactive,
Cc1cc(Cl)ccc1OC(C)C(=O)O (configuration not stated),,inconclusive: 50 µM

# Biological target: Thyroid hormone receptor alpha (Rattus norvegicus) + Thyroid hormone receptor beta (Rattus norvegicus) (UniProt P18113+P63059)
# Assay: TOX21_TR_LUC_GH3_Agonist_Followup: Tox21 GH3 Thyroid Hormone Receptor Agonism Luciferase Follow-Up Assay (AID 2283939)
# Method in brief: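 Agonist-mode confirmatory run: 15 concentrations (5 nM to 92 uM final) on GH3 rat pituitary cells, 24 h at 37C/5% CO2, T3 as positive control. Luminescence read with ONE-Glo after 30 min.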
SMILES,outcome,AC50
Cc1ccc(N)cc1,inactive,
CCC[CH2][Sn]([CH2]CCC)([CH2]CCC)[CH2]CCC,,inconclusive: 78.6 µM
CN(C)c1ccc(N=O)cc1,,inconclusive: 24 µM
CC(C)(c1ccccc1)c1ccc(O)c(C(C)(C)c2ccccc2)c1,,inconclusive: 23.4 µM
CC(C)(OO)c1ccccc1,,inconclusive: 80.9 µM

# System: not listed separately
# Assay: TOX21_PR_LUC_Followup_Antagonist_viability: Viability Assessment in the Tox21 HEK293 Progesterone Receptor (PR) Antagonism Luciferase Follow-Up Assay (AID 2283940)
# Method in brief: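 HEK293-PR-A-luc, 3,000 cells/well; 5 h at 37C/0% CO2; compound pin transfer; 16 h incubation; CellTiter-Glo ATP luminescence, signal loss = cytotoxicity.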
SMILES,outcome,AC50
CCCCCCCCCc1ccc(O)cc1,inactive,
ClC1=C(Cl)[C@]2(Cl)[C@H]3[C@H]([C@@H]4C=C[C@H]3C4)[C@@]1(Cl)C2(Cl)Cl,,inconclusive: 21.4 µM
CCCSP(=S)(OCC)Oc1ccc(SC)cc1 (configuration not stated),,inconclusive: 46.1 µM
ClC1=C(Cl)[C@]2(Cl)[C@@H]3[C@@H]4C[C@@H]([C@H]5O[C@@H]45)[C@@H]3[C@@]1(Cl)C2(Cl)Cl,inactive,
O=S(=O)(c1ccc(Cl)cc1)c1cc(Cl)c(Cl)cc1Cl,,inconclusive: 9.14 µM
CO/N=C(/C(=O)OC)c1ccccc1COc1ccccc1C,,inconclusive: 0.376 µM
O=S(=O)(Oc1ccc(Cl)cc1)c1ccc(Cl)cc1,,inconclusive: 46.1 µM
CCOP(=S)(Oc1ccc([N+](=O)[O-])cc1)c1ccccc1 (configuration not stated),,inconclusive: 46.1 µM

# System: not listed separately
# Assay: TOX21_PR_LUC_Followup_Agonist_viability: Viability Assessment in the Tox21 HEK293 Progesterone Receptor (PR) Agonism Luciferase Follow-Up Assay (AID 2283941);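 further: loss of signal means cytotoxicity so actives lower viability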
# Method in brief: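 Multiplexed viability endpoint of the PR agonist luciferase follow-up: HEK293-PR-A-luc cells treated 16 h at 37C, with viability scored as decrease in CellTiter-Glo ATP signal.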
SMILES,AC50,outcome
CCCCCCCCCc1ccc(O)cc1,inconclusive: 46.1 µM,
ClC1=C(Cl)[C@]2(Cl)[C@H]3[C@H]([C@@H]4C=C[C@H]3C4)[C@@]1(Cl)C2(Cl)Cl,inconclusive: 46.1 µM,
CCCSP(=S)(OCC)Oc1ccc(SC)cc1 (configuration not stated),inconclusive: 17.7 µM,
ClC1=C(Cl)[C@]2(Cl)[C@@H]3[C@@H]4C[C@@H]([C@H]5O[C@@H]45)[C@@H]3[C@@]1(Cl)C2(Cl)Cl,inconclusive: 1.03 µM,
OC(c1ccc(Cl)cc1)(c1ccc(Cl)cc1)c1cccnc1,,inactive
O=S(=O)(c1ccc(Cl)cc1)c1cc(Cl)c(Cl)cc1Cl,inconclusive: 13.1 µM,
CO/N=C(/C(=O)OC)c1ccccc1COc1ccccc1C,inconclusive: 46.1 µM,
CCOP(=S)(Oc1ccc([N+](=O)[O-])cc1)c1ccccc1 (configuration not stated),,inactive

# Three compounds out of the list, arranged by molar mass, falling:
SMILES,AC50,outcome
ClC1=C(Cl)[C@]2(Cl)[C@H]3[C@H]([C@@H]4C=C[C@H]3C4)[C@@]1(Cl)C2(Cl)Cl,inconclusive: 46.1 µM,
OC(c1ccc(Cl)cc1)(c1ccc(Cl)cc1)c1cccnc1,,inactive
CCCCCCCCCc1ccc(O)cc1,inconclusive: 46.1 µM,
